Experimental data published in PMC11263418.
Results are given in words; binding and its absence hold for the method and conditions named. In cells and extracts the contact can be indirect. Some binding calls cover weakened binding; strength is not graded here.

Biological target: T1, Membrane associated RING finger protein 5 (MARCH5) (human (in human OC cell lines)) (UniProt Q9NX47)
T1 sequence: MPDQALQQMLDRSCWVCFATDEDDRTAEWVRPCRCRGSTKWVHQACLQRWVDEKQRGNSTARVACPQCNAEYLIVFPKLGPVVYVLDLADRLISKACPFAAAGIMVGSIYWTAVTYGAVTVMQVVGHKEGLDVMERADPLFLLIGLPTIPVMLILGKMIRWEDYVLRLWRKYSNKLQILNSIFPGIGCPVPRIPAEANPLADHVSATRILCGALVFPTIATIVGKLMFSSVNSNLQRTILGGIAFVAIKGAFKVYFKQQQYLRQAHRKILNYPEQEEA
Test: co-IP; Co-IP of MARCH5 and MPC1 in OC cells; which protein was precipitated and the conditions are not told

B1: mitochondrial pyruvate carrier 1 (MPC1) (protein, UniProt Q9Y5U8 1-109)
chain: MAGALVRKAADYVRSKDFRDYLMSTHFWGPVANWGLPIAAINDMKKSPEIISGRMTFALCCYSLTFMRFAYKVQPRNWLLFACHATNEVAQLIQGGRLIKHEMTKTASA
**Q.** B1 was tested. Which binding did it give?
**A.** binds
